In article PMC12368222:
Results are given in words; binding and its absence hold for the method and conditions named. Some binding calls cover weakened binding; strength is not graded here.

Sequences of proteins named here, by UniProt entry; tags and fusion partners are left off. Residues count along the entry.
UniProt P00873, residues 46-185: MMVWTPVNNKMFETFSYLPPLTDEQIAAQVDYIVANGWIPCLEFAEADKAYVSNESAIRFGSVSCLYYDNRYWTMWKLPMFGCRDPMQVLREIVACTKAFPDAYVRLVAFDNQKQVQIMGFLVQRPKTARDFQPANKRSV

Target: Rubisco large subunit (ribulose-1,5-bisphosphate carboxylase/oxygenase large subunit), Chlamydomonas reinhardtii (C. reinhardtii (endogenous in strain CC-1690)) (UniProt P00877)
Assay: cryo-EM structure; in-cell cryo-electron tomography of cryo-FIB milled C. reinhardtii cells, subtomogram averaging, class 12, D4 symmetry applied, 8.1 Å, MDFF model fitted

Row | Substance | binding
1 | Rubisco large subunit (ribulose-1,5-bisphosphate carboxylase/oxygenase large subunit), Chlamydomonas reinhardtii (from UniProt P00877 1-475) | binds
2 | Rubisco small subunit (ribulose-1,5-bisphosphate carboxylase/oxygenase small subunit), Chlamydomonas reinhardtii (from UniProt P00873 46-185) | binds
